Measured values as given in article PMC10139993.
Results are given in words; binding and its absence hold for the method and conditions named. In cells and extracts the contact can be indirect. Some entries that bind do so weakly or less than the wild type.

The chains behind the UniProt entries cited, without tags or fusion partners. Where a name states a change or a piece, a line headed by the entry shows the natural chain unless it says otherwise.
UniProt P35637: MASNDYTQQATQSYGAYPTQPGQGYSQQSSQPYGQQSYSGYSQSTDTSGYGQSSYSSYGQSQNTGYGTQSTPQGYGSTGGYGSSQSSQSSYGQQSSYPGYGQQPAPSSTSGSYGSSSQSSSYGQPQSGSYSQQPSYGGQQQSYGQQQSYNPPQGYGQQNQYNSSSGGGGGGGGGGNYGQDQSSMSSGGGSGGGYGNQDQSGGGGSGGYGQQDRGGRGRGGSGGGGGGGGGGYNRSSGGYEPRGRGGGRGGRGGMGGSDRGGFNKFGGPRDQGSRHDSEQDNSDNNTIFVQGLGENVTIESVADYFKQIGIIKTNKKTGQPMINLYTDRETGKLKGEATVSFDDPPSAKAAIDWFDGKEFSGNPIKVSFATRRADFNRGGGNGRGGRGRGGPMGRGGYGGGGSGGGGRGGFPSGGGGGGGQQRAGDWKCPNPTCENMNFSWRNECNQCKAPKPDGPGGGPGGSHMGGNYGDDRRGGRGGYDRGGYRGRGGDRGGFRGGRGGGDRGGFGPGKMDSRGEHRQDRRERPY

How the values were obtained:
[1] = target: FUS R495X with N-terminal GFP tag (UniProt P35637); test: single-molecule pull-down (SiMPull) with GFP photobleaching step counting, before and after a dissolving agent; complexes captured as in SiMPull, imaged, then incubated ~5 min with 10% 1,6-hexanediol, 500 mM NaCl, 1 mg/mL RNase A, 10-1000 nM Kapβ2 or Kapβ2 with RNase A, washed twice with T50 and imaged again; 8 M GdnHCl and 0.1% SDS as denaturing controls (these increased the monomeric population)
[2] = target: FUS P525L with N-terminal GFP tag (UniProt P35637); test: as above
[3] = target: FUS R244C with N-terminal GFP tag (UniProt P35637); test: as above
[4] = target: FUS R244C with N-terminal GFP tag (UniProt P35637); test: single-molecule pull-down (SiMPull) with GFP photobleaching step counting; diluted NP40 lysate (1:100-1:10,000 in T50: 10 mM Tris-Cl pH 8.0, 50 mM NaCl) of transfected SH-SY5Y cells flowed over a PEG/neutravidin surface with biotinylated anti-GFP antibody; 488 nm TIRF, room temperature; photobleaching steps counted per spot; 30% dimers subtracted for GFP self-dimerisation; cells without or with 0.4 M sorbitol 4 h (also arsenite) before lysis
[5] = target: FUS G156E with C-terminal GFP tag (UniProt P35637); test: as above
[6] = target: FUS R244C with C-terminal GFP tag (UniProt P35637); test: as above
[7] = target: FUS R216C with N-terminal GFP tag (UniProt P35637); test: single-molecule pull-down (SiMPull) with GFP photobleaching step counting, before and after a dissolving agent; complexes captured as in SiMPull, imaged, then incubated ~5 min with 10% 1,6-hexanediol, 500 mM NaCl, 1 mg/mL RNase A, 10-1000 nM Kapβ2 or Kapβ2 with RNase A, washed twice with T50 and imaged again; 8 M GdnHCl and 0.1% SDS as denaturing controls (these increased the monomeric population)
[8] = target: FUS R216C with N-terminal GFP tag (UniProt P35637); test: single-molecule pull-down (SiMPull) with GFP photobleaching step counting; diluted NP40 lysate (1:100-1:10,000 in T50: 10 mM Tris-Cl pH 8.0, 50 mM NaCl) of transfected SH-SY5Y cells flowed over a PEG/neutravidin surface with biotinylated anti-GFP antibody; 488 nm TIRF, room temperature; photobleaching steps counted per spot; 30% dimers subtracted for GFP self-dimerisation; cells without or with 0.4 M sorbitol 4 h (also arsenite) before lysis
[9] = target: FUS G187S with N-terminal GFP tag (UniProt P35637); test: single-molecule pull-down (SiMPull) with GFP photobleaching step counting, before and after a dissolving agent; complexes captured as in SiMPull, imaged, then incubated ~5 min with 10% 1,6-hexanediol, 500 mM NaCl, 1 mg/mL RNase A, 10-1000 nM Kapβ2 or Kapβ2 with RNase A, washed twice with T50 and imaged again; 8 M GdnHCl and 0.1% SDS as denaturing controls (these increased the monomeric population)
[10] = target: FUS G187S with N-terminal GFP tag (UniProt P35637); test: single-molecule pull-down (SiMPull) with GFP photobleaching step counting; diluted NP40 lysate (1:100-1:10,000 in T50: 10 mM Tris-Cl pH 8.0, 50 mM NaCl) of transfected SH-SY5Y cells flowed over a PEG/neutravidin surface with biotinylated anti-GFP antibody; 488 nm TIRF, room temperature; photobleaching steps counted per spot; 30% dimers subtracted for GFP self-dimerisation; cells without or with 0.4 M sorbitol 4 h (also arsenite) before lysis
[11] = target: FUS G156E with N-terminal GFP tag (UniProt P35637); test: single-molecule pull-down (SiMPull) with GFP photobleaching step counting, before and after a dissolving agent; complexes captured as in SiMPull, imaged, then incubated ~5 min with 10% 1,6-hexanediol, 500 mM NaCl, 1 mg/mL RNase A, 10-1000 nM Kapβ2 or Kapβ2 with RNase A, washed twice with T50 and imaged again; 8 M GdnHCl and 0.1% SDS as denaturing controls (these increased the monomeric population)
[12] = target: FUS G156E with N-terminal GFP tag (UniProt P35637); test: single-molecule pull-down (SiMPull) with GFP photobleaching step counting; diluted NP40 lysate (1:100-1:10,000 in T50: 10 mM Tris-Cl pH 8.0, 50 mM NaCl) of transfected SH-SY5Y cells flowed over a PEG/neutravidin surface with biotinylated anti-GFP antibody; 488 nm TIRF, room temperature; photobleaching steps counted per spot; 30% dimers subtracted for GFP self-dimerisation; cells without or with 0.4 M sorbitol 4 h (also arsenite) before lysis

FUS R495X with N-terminal GFP tag (from UniProt P35637 1-494)
binding [1]: binds

FUS P525L with N-terminal GFP tag (from UniProt P35637 1-526)
binding [2]: binds

FUS R244C with N-terminal GFP tag (from UniProt P35637 1-526)
binding [3]: binds | binding [4]: binds

FUS G156E with C-terminal GFP tag (from UniProt P35637 1-526)
binding [5]: binds

FUS R244C with C-terminal GFP tag (from UniProt P35637 1-526)
binding [6]: binds

FUS R216C with N-terminal GFP tag (from UniProt P35637 1-526)
binding [7]: binds | binding [8]: binds

FUS G187S with N-terminal GFP tag (from UniProt P35637 1-526)
binding [9]: binds | binding [10]: binds

FUS G156E with N-terminal GFP tag (from UniProt P35637 1-526)
binding [11]: binds | binding [12]: binds
